Reference: ChEMBL document CHEMBL4316593 (Eur J Med Chem, 2019)
The source gives many values for each of these; only a part stands here.

Key:
Assay type in all cases: cell-based
Conditions in all cases: U-87MG ATCC
[1] = Inhibition of RTK/PI3K/AKT/mTOR signaling in human U87 cells assessed as up regulation of ataxin 7 like 3 gene expression at cytotoxic IC50 measured after 48 hrs relative to control
[2] = Inhibition of RTK/PI3K/AKT/mTOR signaling in human U87 cells assessed as down regulation of RIPK1 gene expression at cytotoxic IC50 measured after 48 hrs relative to control
[3] = Inhibition of RTK/PI3K/AKT/mTOR signaling in human U87 cells assessed as down regulation of SESN2 gene expression at cytotoxic IC50 measured after 48 hrs relative to control
[4] = Inhibition of RTK/PI3K/AKT/mTOR signaling in human U87 cells assessed as down regulation of PSME3 gene expression at cytotoxic IC50 measured after 48 hrs relative to control
[5] = Inhibition of RTK/PI3K/AKT/mTOR signaling in human U87 cells assessed as down regulation of SMG8 gene expression at cytotoxic IC50 measured after 48 hrs relative to control
[6] = Inhibition of RTK/PI3K/AKT/mTOR signaling in human U87 cells assessed as down regulation of PHKG2 gene expression at cytotoxic IC50 measured after 48 hrs relative to control
[7] = Inhibition of RTK/PI3K/AKT/mTOR signaling in human U87 cells assessed as down regulation of HSPA1A gene expression at cytotoxic IC50 measured after 48 hrs relative to control
[8] = Inhibition of RTK/PI3K/AKT/mTOR signaling in human U87 cells assessed as down regulation of ANKRD13A gene expression at cytotoxic IC50 measured after 48 hrs relative to control
[9] = Inhibition of RTK/PI3K/AKT/mTOR signaling in human U87 cells assessed as down regulation of MPV17L2 gene expression at cytotoxic IC50 measured after 48 hrs relative to control
[10] = Inhibition of RTK/PI3K/AKT/mTOR signaling in human U87 cells assessed as down regulation of NUDT16 gene expression at cytotoxic IC50 measured after 48 hrs relative to control
[11] = Inhibition of RTK/PI3K/AKT/mTOR signaling in human U87 cells assessed as down regulation of KCTD10 gene expression at cytotoxic IC50 measured after 48 hrs relative to control
[12] = Inhibition of RTK/PI3K/AKT/mTOR signaling in human U87 cells assessed as down regulation of RABGGTB gene expression at cytotoxic IC50 measured after 48 hrs relative to control
[13] = Inhibition of RTK/PI3K/AKT/mTOR signaling in human U87 cells assessed as down regulation of ATG3 gene expression at cytotoxic IC50 measured after 48 hrs relative to control
[14] = Inhibition of RTK/PI3K/AKT/mTOR signaling in human U87 cells assessed as up regulation of NOTCH3 gene expression at cytotoxic IC50 measured after 48 hrs relative to control
[15] = Inhibition of RTK/PI3K/AKT/mTOR signaling in human U87 cells assessed as up regulation of CKLF like MARVEL transmembrane domain containing 7 gene expression at cytotoxic IC50 measured after 48 hrs relative to control
[16] = Inhibition of RTK/PI3K/AKT/mTOR signaling in human U87 cells assessed as up regulation of SPOP gene expression at cytotoxic IC50 measured after 48 hrs relative to control
[17] = Inhibition of RTK/PI3K/AKT/mTOR signaling in human U87 cells assessed as up regulation of nestin gene expression at cytotoxic IC50 measured after 48 hrs relative to control
[18] = Inhibition of RTK/PI3K/AKT/mTOR signaling in human U87 cells assessed as up regulation of CUEDC2 gene expression at cytotoxic IC50 measured after 48 hrs relative to control
[19] = Inhibition of RTK/PI3K/AKT/mTOR signaling in human U87 cells assessed as up regulation of protein disulfide isomerase family A member 5 gene expression at cytotoxic IC50 measured after 48 hrs relative to control
[20] = Inhibition of RTK/PI3K/AKT/mTOR signaling in human U87 cells assessed as up regulation of TEA domain transcription factor 2 gene expression at cytotoxic IC50 measured after 48 hrs relative to control
[21] = Inhibition of RTK/PI3K/AKT/mTOR signaling in human U87 cells assessed as down regulation of ABL2 gene expression at cytotoxic IC50 measured after 48 hrs relative to control
[22] = Inhibition of RTK/PI3K/AKT/mTOR signaling in human U87 cells assessed as up regulation of AP3S1 gene expression at cytotoxic IC50 measured after 48 hrs relative to control
[23] = Inhibition of RTK/PI3K/AKT/mTOR signaling in human U87 cells assessed as down regulation of SEC24C gene expression at cytotoxic IC50 measured after 48 hrs relative to control
[24] = Inhibition of RTK/PI3K/AKT/mTOR signaling in human U87 cells assessed as down regulation of PARP2 gene expression at cytotoxic IC50 measured after 48 hrs relative to control
[25] = Inhibition of RTK/PI3K/AKT/mTOR signaling in human U87 cells assessed as up regulation of LINC01694 gene expression at cytotoxic IC50 measured after 48 hrs relative to control
[26] = Inhibition of RTK/PI3K/AKT/mTOR signaling in human U87 cells assessed as down regulation of HMGN2 gene expression at cytotoxic IC50 measured after 48 hrs relative to control
[27] = Inhibition of RTK/PI3K/AKT/mTOR signaling in human U87 cells assessed as up regulation of neuroligin 2 gene expression at cytotoxic IC50 measured after 48 hrs relative to control
[28] = Inhibition of RTK/PI3K/AKT/mTOR signaling in human U87 cells assessed as up regulation of AMZ2 gene expression at cytotoxic IC50 measured after 48 hrs relative to control
[29] = Inhibition of RTK/PI3K/AKT/mTOR signaling in human U87 cells assessed as down regulation of PDE12 gene expression at cytotoxic IC50 measured after 48 hrs relative to control
[30] = Inhibition of RTK/PI3K/AKT/mTOR signaling in human U87 cells assessed as up regulation of DENN domain containing 5A gene expression at cytotoxic IC50 measured after 48 hrs relative to control
[31] = Inhibition of RTK/PI3K/AKT/mTOR signaling in human U87 cells assessed as up regulation of related RAS viral (r-ras) oncogene homolog gene expression at cytotoxic IC50 measured after 48 hrs relative to control
[32] = Inhibition of RTK/PI3K/AKT/mTOR signaling in human U87 cells assessed as down regulation of DSP gene expression at cytotoxic IC50 measured after 48 hrs relative to control

Compound `CC(=O)C(=NNc1ccccc1C#N)C(C)=O` has a log2FC [1] of 0.654, a log2FC [2] of -0.874 and a log2FC [3] of -2.55. The log2FC [4] was -0.471, the log2FC [5] was -0.608 and the log2FC [6] was -1.08. It also gave a log2FC [7] of -4.49, a log2FC [8] of -0.561 and a log2FC [9] of -1.19. It also gave a log2FC [10] of -0.926, a log2FC [11] of -0.869 and a log2FC [12] of -0.414. The log2FC [13] was -0.658, the log2FC [14] was 2.42 and the log2FC [15] was 1.52. The log2FC [16] was 0.642, the log2FC [17] was 1.01 and the log2FC [18] was 0.605. For the same compound, the log2FC [19] was 0.938, the log2FC [20] was 1.19 and the log2FC [21] was -0.507. The log2FC [22] was 0.533, the log2FC [23] was -0.475 and the log2FC [24] was -0.681. For the same compound, the log2FC [25] was 3.72, the log2FC [26] was -0.97 and the log2FC [27] was 1.03. For the same compound, the log2FC [28] was 0.599, the log2FC [29] was -0.923 and the log2FC [30] was 0.698. It also gave a log2FC [31] of 1.42 and a log2FC [32] of -0.374.
